Assay results as given in patent US4124578A, “Antiovulatory polypeptides” (American Home Products Corporation, priority 1978, dated 1978).
At least one peptide structure holds a part that was inferred or is arguable (an end, a ring closure or a residue). Residues, ends and D or L forms follow the SMILES beside them.

Test system: spontaneous ovulation
Assay: Inhibition of spontaneous ovulation in female rats
Type: in vivo, rat
Details: Dose 6 mg., subcutaneous injections in oil on afternoon of proestrus, adult female rats
Description: The rats are sacrificed the next morning (estrus), and the number of animals ovulating and the number of ova identified under a disecting microscope are recorded. The absence of, or a significant decrease in, the number of ova is the criterion for an anti-ovulary effect.

CCNC(=O)[C@@H]1CCCN1C(=O)[C@H](CCCNC(=N)N)NC(=O)[C@@H](CC(C)C)NC(=O)C(C)(C)NC(=O)CNC(=O)[C@@H](Cc1c[nH]c2ccccc12)NC(=O)[C@H](CCCNC(=N)N)NC(=O)[C@H](Cc1ccc(O)cc1)NC(=O)[C@@H]1CCC(=O)N1 [Example 3, L-(5-Oxoprolyl)-L-tyrosyl-L-arginyl-D-tryptophylglycyl-(2-methylalanyl)-D-leucyl-L-arginyl-N-ethyl-L-prolinamide] (HELM PEPTIDE1{[Glp].Y.R.[dW].G.[Aib].[dL].R.P.[CCN[*:1]]}$$$$V2.0)
% Inhibition of Ovulation: 100% | Number of Ovulating Rats (ovulating/total): 0/5
